The source of these data is PubChem BioAssay AID330 (DTP/NCI, 2004).

The list does not hold the whole screen: it gathers tests that were run many times, whatever their T/C, doses with no T/C, and many T/C values between a quarter and a half above the control. Further doses and runs are listed elsewhere. T/C gives the treated animals as a percentage of the vehicle group. Some entries give survivors of the animals treated and no T/C: the source files T/C as zero there, which appears to mark a toxic dose or a test without result, not a measured value. Some survivor counts are full or nearly so, which does not show that the dose was tolerated: survival well below the control is almost never listed, so the zero probably covers shortened survival too. Counts of survivors are from the toxicity check (mostly the fifth day) where no day follows; animals may have died later. Schedule codes are those of the source, taken here to give the interval after Q, in days (D) or hours (H), and the number of doses after X. Some entries were tested several times; their values stand side by side, smallest first. Where survival is the endpoint, the PubChem record calls one and a half times the control and up active, and a quarter to a half above the control has no call in these data; cut-offs in other NCI protocols can differ. Some T/C values are followed by the survivors on the day toxicity was checked, most often the fifth; where none is given, no animal had died by that day.

The experiment concerns P388 leukemia ip, CD2F1 mice, survival T/C. The experiment can be described thus: NCI In Vivo Anticancer Drug Screen. Data for tumor model P388 Leukemia (intraperitoneal) in CD2F1 (CDF1) mice. As to conditions: T/C endpoint: median survival time, higher T/C = longer survival.
[1] abbreviates: dose: 400.0 mg/kg/injection, schedule: Q04DX002 (ip), vehicle: saline with Tween-80.
Setting [2] is: dose: 200.0 mg/kg/injection, schedule: Q01DX009 (ip), vehicle: Klucel (hydroxypropylcellulose) (HPC).
Setting [3] is: dose: 200.0 mg/kg/injection, schedule: Q01DX005 (ip), vehicle: saline with Tween-80.
Setting [4] is: dose: 200.0 mg/kg/injection, schedule: Q01DX009 (ip), vehicle: saline.

With `O=C(OCC12OC1C(=O)C1OC1C2O)c1ccccc1` (centres undefined), the survivor count (dose: 37.5 mg/kg/injection, schedule: Q04DX002 (ip), vehicle: saline with Tween-80) is listed as 0 of 6; the survivor count (dose: 75.0 mg/kg/injection, schedule: Q04DX002 (ip), vehicle: saline with Tween-80) was 0 of 6; the survivor count (dose: 150.0 mg/kg/injection, schedule: Q04DX002 (ip), vehicle: saline with Tween-80) was 0 of 6.
As to `NC(C[O-])C(=O)[O-].NCC(=O)[O-].[Mn+3]` (centres undefined), under setting [1], the survivor count is given as 6 of 6.
As for `CN(C)/C=C1\C(=O)O[C@H]2CCC[C@@]12C`, the survivor count (dose: 400.0 mg/kg/injection, schedule: Q01DX001 (ip), vehicle: saline with Tween-80) is given as 0 of 6.
As to `C/C=C(\C)C(=O)OC1C2C(C)=CC(=O)C(O)C2(C)C2C3(O)OCC24C1OC(=O)C(OC(C)=O)C4C(C)C3O` (centres undefined), under “dose: 1.25 mg/kg/injection, schedule: Q01DX009 (ip), vehicle: saline”, the T/C was 131 % of control. Also, the survivor count is, setting by setting: (dose: 7.5 mg/kg/injection, schedule: Q01DX005 (ip), vehicle: Klucel (hydroxypropylcellulose) (HPC)) 0 of 6; (dose: 15.0 mg/kg/injection, schedule: Q01DX005 (ip), vehicle: Klucel (hydroxypropylcellulose) (HPC)) 0 of 6; (dose: 30.0 mg/kg/injection, schedule: Q01DX005 (ip), vehicle: Klucel (hydroxypropylcellulose) (HPC)) 0 of 6; (dose: 60.0 mg/kg/injection, schedule: Q01DX005 (ip), vehicle: Klucel (hydroxypropylcellulose) (HPC)) 0 of 6; (dose: 120.0 mg/kg/injection, schedule: Q01DX005 (ip), vehicle: Klucel (hydroxypropylcellulose) (HPC)) 0 of 6.
Turning to `CC(C)c1ccc(C(CC(=O)C(C)(C)C)C(C(=O)O)c2ccc([N+](=O)[O-])cc2)cc1` (centres undefined), the survivor count under setting [2] is given as 0 of 6.
Take `C[PH+](C)C.C[PH+](C)C.[Au]`: the T/C is, setting by setting: (dose: 5.0 mg/kg/injection, schedule: Q01DX009 (ip), vehicle: saline) 140 % of control; (dose: 10.0 mg/kg/injection, schedule: Q01DX009 (ip), vehicle: saline) 135 [5 of 6 alive] and 138 % of control. For the setting “dose: 20.0 mg/kg/injection, schedule: Q01DX009 (ip), vehicle: saline”, the survivor count was 2 of 6 and 3 of 6.
Consider `Cc1ccc2snnc2c1`, for which the survivor count (dose: 12.5 mg/kg/injection, schedule: Q01DX009 (ip), vehicle: Klucel (hydroxypropylcellulose) (HPC)) was 6 of 6; the survivor count (dose: 25.0 mg/kg/injection, schedule: Q01DX009 (ip), vehicle: Klucel (hydroxypropylcellulose) (HPC)) is recorded as 6 of 6; the survivor count (dose: 100.0 mg/kg/injection, schedule: Q01DX001 (ip), vehicle: Klucel (hydroxypropylcellulose) (HPC)) is 0 of 6; the survivor count (dose: 200.0 mg/kg/injection, schedule: Q01DX001 (ip), vehicle: Klucel (hydroxypropylcellulose) (HPC)) is on record as 0 of 6; the survivor count (dose: 400.0 mg/kg/injection, schedule: Q01DX001 (ip), vehicle: Klucel (hydroxypropylcellulose) (HPC)) is given as 0 of 6.
In the case of `CCCCCCCCCCCCCCCCOc1ccc(S(=O)(=O)N/N=c2/sc3ccc(S(=O)(=O)O)cc3n2C)cc1C(=O)O`, the survivor count (dose: 50.0 mg/kg/injection, schedule: Q01DX009 (ip), vehicle: saline with Tween-80) was 6 of 6 and the survivor count (dose: 200.0 mg/kg/injection, schedule: Q01DX009 (ip), vehicle: saline with Tween-80) is given as 1 of 6.
For the compound `Cc1cccc(NC(N)=S)n1`, under “dose: 200.0 mg/kg/injection, schedule: Q01DX009 (ip), vehicle: other”, the survivor count is on record as 2 of 6.
Turning to `NS(=O)(=O)c1ccc(CN2C(=O)c3ccccc3C2=O)cc1`, the survivor count is, setting by setting: (dose: 200.0 mg/kg/injection, schedule: Q04DX002 (ip), vehicle: saline with Tween-80) 0 of 6; under setting [1], 0 of 6.
With `CC(=O)NC(CCc1ccc(Cl)c(Cl)c1)c1cccc(O)c(=O)c1` (centres undefined), where the note is “dose: 50.0 mg/kg/injection, schedule: Q01DX009 (ip), vehicle: Klucel (hydroxypropylcellulose) (HPC)”, the T/C is on record as 125, 130, 141 % of control. Besides, the survivor count is given as 6 of 6 (dose: 100.0 mg/kg/injection, schedule: Q01DX009 (ip), vehicle: Klucel (hydroxypropylcellulose) (HPC)) and 6 of 6 under setting [2].
As to `CC(CO)NC(=O)C1C=C2c3cccc4[nH]cc(c34)CC2N(C)C1` (centres undefined), the survivor count (dose: 36.0 mg/kg/injection, schedule: Q01DX009 (ip), vehicle: saline) is 6 of 6.
For `CN(C)C(=S)S(=O)(=O)CCCCCCS(=O)(=O)C(=S)N(C)C`, the survivor count (dose: 400.0 mg/kg/injection, schedule: Q04DX002 (ip), vehicle: Klucel (hydroxypropylcellulose) (HPC)) is 0 of 6.
As to `CCN(CC)CCN(Cc1ccccc1)C(=O)C1c2ccccc2Oc2ccccc21`, under setting [3], the survivor count is 0 of 5.
Consider `CCCCN(CCCC)CCCNc1c2c(nc3ccc(Cl)cc13)CCCC2`, for which the survivor count (dose: 100.0 mg/kg/injection, schedule: Q01DX005 (ip), vehicle: saline with Tween-80) is listed as 1 of 6 and the survivor count under setting [3] is listed as 0 of 6.
Regarding `CNC(=O)n1cc(Cl)ccc1=O`, the survivor count is, setting by setting: under setting [4], 3 of 6; (dose: 400.0 mg/kg/injection, schedule: Q01DX009 (ip), vehicle: saline) 1 of 6 and 3 of 6.
Consider `CC(C)c1nc2ccc(Cl)cc2[nH]1`, for which the survivor count under setting [3] was 2 of 5.
For the compound `COc1cc(NC(C)CCCN)c2ncc(Br)cc2c1` (centres undefined), the survivor count (dose: 25.0 mg/kg/injection, schedule: Q01DX005 (ip), vehicle: saline) is on record as 2 of 6; the survivor count (dose: 50.0 mg/kg/injection, schedule: Q01DX005 (ip), vehicle: saline) was 4 of 6; the survivor count (dose: 100.0 mg/kg/injection, schedule: Q01DX005 (ip), vehicle: saline) is given as 1 of 6; the survivor count (dose: 200.0 mg/kg/injection, schedule: Q01DX005 (ip), vehicle: saline) is 0 of 6.
`CCCCCCCCCCCCCCCc1c(NC(C)(CC(C)(C)O)[P+](=O)O)c(=O)n(C)n1C` (centres undefined): the survivor count under setting [4] is given as 3 of 6.
For the compound `CN(C)CCOc1cccc2c1C(=O)c1ccccc1C2=O`, the survivor count (dose: 200.0 mg/kg/injection, schedule: Q01DX009 (ip), vehicle: water) is on record as 1 of 6.
Consider `CCCC[P+](c1ccccc1)(c1ccccc1)c1ccccc1`, for which, where the note is “dose: 20.0 mg/kg/injection, schedule: Q01DX009 (ip), vehicle: saline sonified”, the T/C was 127 % of control.
As to `O=C1C2CC(CN3CCCCC23)C2CCCCN12` (centres undefined), the survivor count (dose: 300.0 mg/kg/injection, schedule: Q01DX009 (ip), vehicle: saline) is 2 of 6.
